PubChem BioAssay AID1224827, NIAID – 2016
This is a random part of about 3,800 reagents. About 2,200 of them (57%) count as active. 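Active means a strong reporter change in either direction; calls are per siRNA, not per gene; qiagen siRNAs gave weaker effects.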 A number with no mark means an inactive call. Reagents against one gene are numbered here. Further read-outs or replicates are left out here. No sequences are given here.

Assay: 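Retest primary hits on a TNF reporter with six siRNAs per gene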 (follow-up of hits)
System: RAW264.7 G9 mouse macrophage reporter clone
Reagent: single siRNA against mouse genes, 100 nM siRNA
Duration: siRNA for 2 days, then LPS about 16 h
Challenge: bacterial lipopolysaccharide (LPS), 10 ng/ml, cells fixed after overnight (about 16 h) stimulation
Measurement: 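Imaged nuclear TNF reporter intensity, background removed, scaled per plate and to non-targeting control wells, as z-scores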
Direction: TNF reporter z-score, mean: higher = stronger Tnf promoter reporter signal; gene median z, three same-vendor siRNAs: higher = stronger Tnf reporter signal for the gene
Rule for the call: 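Active siRNA: replicate-mean z-score of 2 or more, or -2 or less; no calls for control wells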

Which result is listed for Cog3 (GeneID 338337) #1?
TNF reporter z-score, mean: -0.638; gene median z, three same-vendor siRNAs: -2.68

For Cog3 (GeneID 338337) #2, how do the results read?
TNF reporter z-score, mean: -3.34 (active); gene median z, three same-vendor siRNAs: -2.68

For Cog3 (GeneID 338337) #3, what was measured?
TNF reporter z-score, mean: -3.86 (active); gene median z, three same-vendor siRNAs: -2.68

Which result is listed for Cog3 (GeneID 338337) #4?
TNF reporter z-score, mean: 1.59; gene median z, three same-vendor siRNAs: 0.205

With Cog3 (GeneID 338337) #5, how do the results read?
TNF reporter z-score, mean: -0.122; gene median z, three same-vendor siRNAs: 0.205

With Cog3 (GeneID 338337) #6, how do the results read?
TNF reporter z-score, mean: -1.24; gene median z, three same-vendor siRNAs: 0.205

With Aqp3 (GeneID 11828) #1, what does the deposit list?
TNF reporter z-score, mean: -0.269; gene median z, three same-vendor siRNAs: -2.29

What is on record for Aqp3 (GeneID 11828) #2?
TNF reporter z-score, mean: -2.29 (active); gene median z, three same-vendor siRNAs: -2.29

With Aqp3 (GeneID 11828) #3, what does the deposit list?
TNF reporter z-score, mean: -2.91 (active); gene median z, three same-vendor siRNAs: -2.29

With Aqp3 (GeneID 11828) #4, what does the deposit list?
TNF reporter z-score, mean: 5 (active); gene median z, three same-vendor siRNAs: -1.25

With Aqp3 (GeneID 11828) #5, what was measured?
TNF reporter z-score, mean: -1.34; gene median z, three same-vendor siRNAs: -1.25

What did the screen give for Aqp3 (GeneID 11828) #6?
TNF reporter z-score, mean: -2.48 (active); gene median z, three same-vendor siRNAs: -1.25

With Moap1 (GeneID 64113) #1, how do the results read?
TNF reporter z-score, mean: -0.565; gene median z, three same-vendor siRNAs: -3.1

Which result is listed for Moap1 (GeneID 64113) #2?
TNF reporter z-score, mean: -3.89 (active); gene median z, three same-vendor siRNAs: -3.1

With Moap1 (GeneID 64113) #3, what was measured?
TNF reporter z-score, mean: -3.62 (active); gene median z, three same-vendor siRNAs: -3.1

How did the screen score Moap1 (GeneID 64113) #4?
TNF reporter z-score, mean: 3.06 (active); gene median z, three same-vendor siRNAs: 0.917

How did the screen score Moap1 (GeneID 64113) #5?
TNF reporter z-score, mean: 2.37 (active); gene median z, three same-vendor siRNAs: 0.917

What did the screen give for Moap1 (GeneID 64113) #6?
TNF reporter z-score, mean: -0.713; gene median z, three same-vendor siRNAs: 0.917

For Zfp747 (GeneID 269997) #1, how do the results read?
TNF reporter z-score, mean: -1.17; gene median z, three same-vendor siRNAs: -4.46

For Zfp747 (GeneID 269997) #2, what does the deposit list?
TNF reporter z-score, mean: -4.62 (active); gene median z, three same-vendor siRNAs: -4.46

For Zfp747 (GeneID 269997) #3, what does the deposit list?
TNF reporter z-score, mean: -4.82 (active); gene median z, three same-vendor siRNAs: -4.46

What did the screen give for Zfp747 (GeneID 269997) #4?
TNF reporter z-score, mean: 0.526; gene median z, three same-vendor siRNAs: -0.673

Which result is listed for Zfp747 (GeneID 269997) #5?
TNF reporter z-score, mean: -0.572; gene median z, three same-vendor siRNAs: -0.673

What is on record for Zfp747 (GeneID 269997) #6?
TNF reporter z-score, mean: -1.06; gene median z, three same-vendor siRNAs: -0.673

What is on record for Rps3 (GeneID 27050) #1?
TNF reporter z-score, mean: -0.76; gene median z, three same-vendor siRNAs: -4.66

What is on record for Rps3 (GeneID 27050) #2?
TNF reporter z-score, mean: -4.66 (active); gene median z, three same-vendor siRNAs: -4.66

How did the screen score Rps3 (GeneID 27050) #3?
TNF reporter z-score, mean: -5.55 (active); gene median z, three same-vendor siRNAs: -4.66

With Rps3 (GeneID 27050) #4, what does the deposit list?
TNF reporter z-score, mean: 3.31 (active); gene median z, three same-vendor siRNAs: -0.465

With Rps3 (GeneID 27050) #5, how do the results read?
TNF reporter z-score, mean: 1.9; gene median z, three same-vendor siRNAs: -0.465

What did the screen give for Rps3 (GeneID 27050) #6?
TNF reporter z-score, mean: -1.24; gene median z, three same-vendor siRNAs: -0.465

What did the screen give for Map6 (GeneID 17760) #1?
TNF reporter z-score, mean: -2.67 (active); gene median z, three same-vendor siRNAs: -3.25

Which result is listed for Map6 (GeneID 17760) #2?
TNF reporter z-score, mean: -3.05 (active); gene median z, three same-vendor siRNAs: -3.25

With Map6 (GeneID 17760) #3, what does the deposit list?
TNF reporter z-score, mean: -4.08 (active); gene median z, three same-vendor siRNAs: -3.25

What is on record for Map6 (GeneID 17760) #4?
TNF reporter z-score, mean: -0.612; gene median z, three same-vendor siRNAs: -1.68

For Map6 (GeneID 17760) #5, what was measured?
TNF reporter z-score, mean: -0.978; gene median z, three same-vendor siRNAs: -1.68

Which result is listed for Map6 (GeneID 17760) #6?
TNF reporter z-score, mean: -3.51 (active); gene median z, three same-vendor siRNAs: -1.68

Look-ups from the list.
Result for Zfp747 (GeneID 269997) #3 in “TNF reporter z-score, mean”: -4.82 (active)
Aqp3 (GeneID 11828) #4, gene median z, three same-vendor siRNAs = -1.25 (active)
Entry of Rps3 (GeneID 27050) #3 in “TNF reporter z-score, mean”: -5.55 (active)
Moap1 (GeneID 64113) #2, TNF reporter z-score, mean: -3.89 (active)
Under “gene median z, three same-vendor siRNAs”, Rps3 (GeneID 27050) #1 has -4.66
